PMC3991325
These are yes or no findings as the source states them, for the method shown. In cells and extracts the contact can be indirect. A yes stands for co-enrichment or nearness to the bait. Other partners may have been found. A no says only that the protein was not detected with the bait. Each block holds one binder with its values, some of them ahead of it.

Protein sequences, listed by entry. Tags and fused reporters are not part of them.
UniProt Q05022: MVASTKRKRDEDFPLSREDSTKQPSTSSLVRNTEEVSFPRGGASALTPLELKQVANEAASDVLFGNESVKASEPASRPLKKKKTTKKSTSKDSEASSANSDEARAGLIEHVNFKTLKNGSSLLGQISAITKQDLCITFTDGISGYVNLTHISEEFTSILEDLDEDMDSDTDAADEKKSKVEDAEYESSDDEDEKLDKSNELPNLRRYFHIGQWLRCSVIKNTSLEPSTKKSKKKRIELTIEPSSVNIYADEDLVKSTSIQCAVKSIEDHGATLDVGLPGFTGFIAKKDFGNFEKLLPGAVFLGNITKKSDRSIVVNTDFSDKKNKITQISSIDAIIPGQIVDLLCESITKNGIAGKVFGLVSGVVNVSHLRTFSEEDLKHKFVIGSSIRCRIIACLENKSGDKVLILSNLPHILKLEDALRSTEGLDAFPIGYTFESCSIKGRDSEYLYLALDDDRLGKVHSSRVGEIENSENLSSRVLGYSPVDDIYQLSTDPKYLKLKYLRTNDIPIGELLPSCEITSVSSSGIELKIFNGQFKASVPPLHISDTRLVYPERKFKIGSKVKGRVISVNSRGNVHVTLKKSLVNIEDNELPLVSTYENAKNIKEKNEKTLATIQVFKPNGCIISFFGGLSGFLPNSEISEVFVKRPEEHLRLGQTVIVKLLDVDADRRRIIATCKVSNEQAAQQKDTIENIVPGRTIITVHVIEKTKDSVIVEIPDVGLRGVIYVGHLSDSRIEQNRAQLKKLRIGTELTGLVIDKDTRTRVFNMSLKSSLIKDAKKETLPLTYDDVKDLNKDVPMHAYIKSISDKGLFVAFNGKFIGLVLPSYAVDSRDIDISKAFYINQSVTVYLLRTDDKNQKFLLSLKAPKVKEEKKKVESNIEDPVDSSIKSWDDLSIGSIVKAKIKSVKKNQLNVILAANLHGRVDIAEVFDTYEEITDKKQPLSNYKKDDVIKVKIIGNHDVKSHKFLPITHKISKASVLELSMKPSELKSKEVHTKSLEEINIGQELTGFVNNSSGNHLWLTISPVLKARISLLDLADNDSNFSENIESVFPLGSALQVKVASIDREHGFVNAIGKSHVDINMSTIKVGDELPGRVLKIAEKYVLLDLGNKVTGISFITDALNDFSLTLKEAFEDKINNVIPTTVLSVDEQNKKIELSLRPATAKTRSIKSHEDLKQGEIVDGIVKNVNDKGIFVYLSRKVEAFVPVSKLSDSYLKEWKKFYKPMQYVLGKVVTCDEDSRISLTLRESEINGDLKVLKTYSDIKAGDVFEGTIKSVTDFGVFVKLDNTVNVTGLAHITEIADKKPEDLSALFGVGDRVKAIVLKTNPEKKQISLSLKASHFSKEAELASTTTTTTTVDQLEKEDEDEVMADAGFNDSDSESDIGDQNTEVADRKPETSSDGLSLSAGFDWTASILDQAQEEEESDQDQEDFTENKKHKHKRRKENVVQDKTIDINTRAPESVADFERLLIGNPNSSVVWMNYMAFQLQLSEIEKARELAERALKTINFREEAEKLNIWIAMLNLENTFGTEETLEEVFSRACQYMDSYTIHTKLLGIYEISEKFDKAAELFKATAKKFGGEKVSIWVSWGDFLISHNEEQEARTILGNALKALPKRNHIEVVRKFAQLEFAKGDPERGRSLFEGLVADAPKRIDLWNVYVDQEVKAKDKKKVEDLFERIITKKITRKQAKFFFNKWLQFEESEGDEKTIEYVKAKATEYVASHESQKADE

Target: Rrp5-HTP (budding yeast) (UniProt Q05022)
Experiment: affinity purification with mass spectrometry; Rrp5-HTP bound to an IgG column, RNase treatment, brief formaldehyde crosslinking on the column, washing under denaturing conditions (8 M urea), release by brief decrosslinking and SDS; the material migrating above Rrp5 in SDS-PAGE analysed by mass spectrometry; Brr2 as control bait

binding: binds
B1: Rps7 (protein, UniProt P26786 1-190)
chain: MSAPQAKILSQAPTELELQVAQAFVELENSSPELKAELRPLQFKSIREIDVAGGKKALAIFVPVPSLAGFHKVQTKLTRELEKKFQDRHVIFLAERRILPKPSRTSRQVQKRPRSRTLTAVHDKILEDLVFPTEIVGKRVRYLVGGNKIQKVLLDSKDVQQIDYKLESFQAVYNKLTGKQIVFEIPSETH

binding: binds
B2: Nop14 (protein, UniProt Q99207 1-810)
chain: MAGSQLKNLKAALKARGLTGQTNVKSKNKKNSKRQAKEYDREEKKKAIAEIREEFNPFEIKAARNKRRDGLPSKTADRIAVGKPGISKQIGEEQRKRAFEARKMMKNKRGGVIDKRFGERDKLLTEEEKMLERFTRERQSQSKRNANLFNLEDDEDDGDMFGDGLTHLGQSLSLEDELANDEEDFLASKRFNEDDAELQQPQRKKTKAEVMKEVIAKSKFYKQERQKAQGIMEDQIDNLDDNFEDVMSELMMTQPKKNPMEPKTDLDKEYDIKVKELQLDKRAAPSDRTKTEEEKNAEAEEKKRELEQQRLDRMNGMIELEEGEERGVEDLDDGFWENEEDYEDDNDGIADSDDDIKFEDQGRDEGFSQILKKKNISISCPRTHDALLDQVKKLDLDDHPKIVKNIIKAYQPKLAEGNKEKLGKFTAVLLRHIIFLSNQNYLKNVQSFKRTQNALISILKSLSEKYNRELSEECRDYINEMQARYKKNHFDALSNGDLVFFSIIGILFSTSDQYHLVITPALILMSQFLEQIKFNSLKRIAFGAVLVRIVSQYQRISKRYIPEVVYFFQKILLTFIVEKENQEKPLDFENIRLDSYELGLPLDVDFTKKRSTIIPLHTLSTMDTEAHPVDQCVSVLLNVMESLDATISTVWKSLPAFNEIILPIQQLLSAYTSKYSDFEKPRNILNKVEKLTKFTEHIPLALQNHKPVSIPTHAPKYEENFNPDKKSYDPDRTRSEINKMKAQLKKERKFTMKEIRKDAKFEARQRIEEKNKESSDYHAKMAHIVNTINTEEGAEKNKYERERKLRGGKK

binding: binds
B3: Rps19 (protein, UniProt P07280 1-144)
chain: MPGVSVRDVAAQDFINAYASFLQRQGKLEVPGYVDIVKTSSGNEMPPQDAEGWFYKRAASVARHIYMRKQVGVGKLNKLYGGAKSRGVRPYKHIDASGSINRKVLQALEKIGIVEISPKGGRRISENGQRDLDRIAAQTLEEDE

binding: binds
B4: Rpa135 (protein, UniProt P22138 1-1203)
chain: MSKVIKPPGQARTADFRTLERESRFINPPKDKSAFPLLQEAVQPHIGSFNALTEGPDGGLLNLGVKDIGEKVIFDGKPLNSEDEISNSGYLGNKLSVSVEQVSIAKPMSNDGVSSAVERKVYPSESRQRLTSYRGKLLLKLKWSVNNGEENLFEVRDCGGLPVMLQSNRCHLNKMSPYELVQHKEESDEIGGYFIVNGIEKLIRMLIVQRRNHPMAIIRPSFANRGASYSHYGIQIRSVRPDQTSQTNVLHYLNDGQVTFRFSWRKNEYLVPVVMILKALCHTSDREIFDGIIGNDVKDSFLTDRLELLLRGFKKRYPHLQNRTQVLQYLGDKFRVVFQASPDQSDLEVGQEVLDRIVLVHLGKDGSQDKFRMLLFMIRKLYSLVAGECSPDNPDATQHQEVLLGGFLYGMILKEKIDEYLQNIIAQVRMDINRGMAINFKDKRYMSRVLMRVNENIGSKMQYFLSTGNLVSQSGLDLQQVSGYTVVAEKINFYRFISHFRMVHRGSFFAQLKTTTVRKLLPESWGFLCPVHTPDGSPCGLLNHFAHKCRISTQQSDVSRIPSILYSLGVAPASHTFAAGPSLCCVQIDGKIIGWVSHEQGKIIADTLRYWKVEGKTPGLPIDLEIGYVPPSTRGQYPGLYLFGGHSRMLRPVRYLPLDKEDIVGPFEQVYMNIAVTPQEIQNNVHTHVEFTPTNILSILANLTPFSDFNQSPRNMYQCQMGKQTMGTPGVALCHRSDNKLYRLQTGQTPIVKANLYDDYGMDNFPNGFNAVVAVISYTGYDMDDAMIINKSADERGFGYGTMYKTEKVDLALNRNRGDPITQHFGFGNDEWPKEWLEKLDEDGLPYIGTYVEEGDPICAYFDDTLNKTKIKTYHSSEPAYIEEVNLIGDESNKFQELQTVSIKYRIRRTPQIGDKFSSRHGQKGVCSRKWPTIDMPFSETGIQPDIIINPHAFPSRMTIGMFVESLAGKAGALHGIAQDSTPWIFNEDDTPADYFGEQLAKAGYNYHGNEPMYSGATGEELRADIYVGVVYYQRLRHMVNDKFQVRSTGPVNSLTMQPVKGRKRHGGIRVGEMERDALIGHGTSFLLQDRLLNSSDYTQASVCRECGSILTTQQSVPRIGSISTVCCRRCSMRFEDAKKLLTKSEDGEKIFIDDSQIWEDGQGNKFVGGNETTTVAIPFVLKYLDSELSAMGIRLRYNVEPK

binding: binds
B5: Rps24 (protein, UniProt P0CX32 1-135)
chain: MSDAVTIRTRKVISNPLLARKQFVVDVLHPNRANVSKDELREKLAEVYKAEKDAVSVFGFRTQFGGGKSVGFGLVYNSVAEAKKFEPTYRLVRYGLAEKVEKASRQQRKQKKNRDKKIFGTGKRLAKKVARRNAD

binding: binds
B6: Rps17 (protein, UniProt P02407 1-136)
chain: MGRVRTKTVKRASKALIERYYPKLTLDFQTNKRLCDEIATIQSKRLRNKIAGYTTHLMKRIQKGPVRGISFKLQEEERERKDQYVPEVSALDLSRSNGVLNVDNQTSDLVKSLGLKLPLSVINVSAQRDRRYRKRV

binding: binds
B7: Utp22 (protein, UniProt P53254 1-1237)
chain: MATSVKRKASETSDQNIVKVQKKHSTQDSTTDNGSKENDHSSQAINERTVPEQENDESDTSPESNEVATNTAATRHNGKVTATESYDIHIARETAELFKSNIFKLQIDELLEQVKLKQKHVLKVEKFLHKLYDILQEIPDWEEKSLAEVDSFFKNKIVSVPFVDPKPIPQNTNYKFNYKKPDISLIGSFALKAGIYQPNGSSIDTLLTMPKELFEKKDFLNFRCLHKRSVYLAYLTHHLLILLKKDKLDSFLQLEYSYFDNDPLLPILRISCSKPTGDSLSDYNFYKTRFSINLLIGFPYKVFEPKKLLPNRNCIRIAQESKEQSLPATPLYNFSVLSSSTHENYLKYLYKTKKQTESFVEATVLGRLWLQQRGFSSNMSHSGSLGGFGTFEFTILMAALLNGGGINSNKILLHGFSSYQLFKGVIKYLATMDLCHDGHLQFHSNPENSSSSPASKYIDEGFQTPTLFDKSTKVNILTKMTVSSYQILKEYAGETLRMLNNVVQDQFSNIFLTNISRFDNLKYDLCYDVQLPLGKYNNLETSLAATFGSMERVKFITLENFLAHKITNVARYALGDRIKYIQIEMVGQKSDFPITKRKVYSNTGGNHFNFDFVRVKLIVNPSECDKLVTKGPAHSETMSTEAAVFKNFWGIKSSLRRFKDGSITHCCVWSTSSSEPIISSIVNFALQKHVSKKAQISNETIKKFHNFLPLPNLPSSAKTSVLNLSSFFNLKKSFDDLYKIIFQMKLPLSVKSILPVGSAFRYTSLCQPVPFAYSDPDFFQDVILEFETSPKWPDEITSLEKAKTAFLLKIQEELSANSSTYRSFFSRDESIPYNLEIVTLNILTPEGYGFKFRVLTERDEILYLRAIANARNELKPELEATFLKFTAKYLASVRHTRTLENISHSYQFYSPVVRLFKRWLDTHLLLGHITDELAELIAIKPFVDPAPYFIPGSLENGFLKVLKFISQWNWKDDPLILDLVKPEDDIRDTFETSIGAGSELDSKTMKKLSERLTLAQYKGIQMNFTNLRNSDPNGTHLQFFVASKNDPSGILYSSGIPLPIATRLTALAKVAVNLLQTHGLNQQTINLLFTPGLKDYDFVVDLRTPIGLKSSCGILSATEFKNITNDQAPSNFPENLNDLSEKMDPTYQLVKYLNLKYKNSLILSSRKYIGVNGGEKGDKNVITGLIKPLFKGAHKFRVNLDCNVKPVDDENVILNKEAIFHEIAAFGNDMVINFETD

binding: binds
B8: Utp21 (protein, UniProt Q06078 1-939)
chain: MSIDLKKRKVEEDVRSRGKNSKIFSPFRIIGNVSNGVPFATGTLGSTFYIVTCVGKTFQIYDANTLHLLFVSEKETPSSIVALSAHFHYVYAAYENKVGIYKRGIEEHLLELETDANVEHLCIFGDYLCASTDDNSIFIYKKSDPQDKYPSEFYTKLTVTEIQGGEIVSLQHLATYLNKLTVVTKSNVLLFNVRTGKLVFTSNEFPDQITTAEPAPVLDIIALGTVTGEVIMFNMRKGKRIRTIKIPQSRISSLSFRTDGSSHLSVGTSSGDLIFYDLDRRSRIHVLKNIHRESYGGVTQATFLNGQPIIVTSGGDNSLKEYVFDPSLSQGSGDVVVQPPRYLRSRGGHSQPPSYIAFADSQSHFMLSASKDRSLWSFSLRKDAQSQEMSQRLHKKQDGGRVGGSTIKSKFPEIVALAIENARIGEWENIITAHKDEKFARTWDMRNKRVGRWTFDTTDDGFVKSVAMSQCGNFGFIGSSNGSITIYNMQSGILRKKYKLHKRAVTGISLDGMNRKMVSCGLDGIVGFYDFNKSTLLGKLKLDAPITAMVYHRSSDLFALALDDLSIVVIDAVTQRVVRQLWGHSNRITAFDFSPEGRWIVSASLDSTIRTWDLPTGGCIDGIIVDNVATNVKFSPNGDLLATTHVTGNGICIWTNRAQFKTVSTRTIDESEFARMALPSTSVRGNDSMLSGALESNGGEDLNDIDFNTYTSLEQIDKELLTLSIGPRSKMNTLLHLDVIRKRSKPKEAPKKSEKLPFFLQLSGEKVGDEASVREGIAHETPEEIHRRDQEAQKKLDAEEQMNKFKVTGRLGFESHFTKQLREGSQSKDYSSLLATLINFSPAAVDLEIRSLNSFEPFDEIVWFIDALTQGLKSNKNFELYETFMSLLFKAHGDVIHANNKNQDIASALQNWEDVHKKEDRLDDLVKFCMGVAAFVTTA

binding: binds
B9: Rpl8 (protein, UniProt P17076 1-256)
chain: MAPGKKVAPAPFGAKSTKSNKTRNPLTHSTPKNFGIGQAVQPKRNLSRYVKWPEYVRVQRQKKILSIRLKVPPTIAQFQYTLDRNTAAETFKLFNKYRPETAAEKKERLTKEAAAVAEGKSKQDASPKPYAVKYGLNHVVALIENKKAKLVLIANDVDPIELVVFLPALCKKMGVPYAIVKGKARLGTLVNQKTSAVAALTEVRAEDEAALAKLVSTIDANFADKYDEVKKHWGGGILGNKAQAKMDKRAKNSDSA

binding: binds
B10: Rps8 (protein, UniProt P0CX39 1-200)
chain: MGISRDSRHKRSATGAKRAQFRKKRKFELGRQPANTKIGAKRIHSVRTRGGNKKYRALRIETGNFSWASEGISKKTRIAGVVYHPSNNELVRTNTLTKAAIVQIDATPFRQWFEAHYGQTLGKKKNVKEEETVAKSKNAERKWAARAASAKIESSVESQFSAGRLYACISSRPGQSGRCDGYILEGEELAFYLRRLTAKK

binding: binds
B11: Rpl33 (protein, UniProt P05744 1-107)
chain: MAESHRLYVKGKHLSYQRSKRVNNPNVSLIKIEGVATPQDAQFYLGKRIAYVYRASKEVRGSKIRVMWGKVTRTHGNSGVVRATFRNNLPAKTFGASVRIFLYPSNI

binding: no binding
B12: Rcl1 (protein, UniProt Q08096 1-367)
chain: MSSSAPKYTTFQGSQNFRLRIVLATLSGKPIKIEKIRSGDLNPGLKDYEVSFLRLIESVTNGSVIEISYTGTTVIYRPGIIVGGASTHICPSSKPVGYFVEPMLYLAPFSKKKFSILFKGITASHNDAGIEAIKWGLMPVMEKFGVRECALHTLKRGSPPLGGGEVHLVVDSLIAQPITMHEIDRPIISSITGVAYSTRVSPSLVNRMIDGAKKVLKNLQCEVNITADVWRGENSGKSPGWGITLVAQSKQKGWSYFAEDIGDAGSIPEELGEKVACQLLEEISKSAAVGRNQLPLAIVYMVIGKEDIGRLRINKEQIDERFIILLRDIKKIFNTEVFLKPVDEADNEDMIATIKGIGFTNTSKKIA
